Reference: US20090215908A1, “TOLL LIKE RECEPTOR (TLR) SIGNALING ANTAGONIST” (RELIANCE LIFE SCIENCES PVT. LTD., priority 2007, published 2009)
At least one structure is not confirmed: it was looked up by name or label, or the drawing left a doubt.

The chains behind the UniProt entries cited, without tags or fusion partners. Residues count along the entry.
UniProt O60603, 21-784: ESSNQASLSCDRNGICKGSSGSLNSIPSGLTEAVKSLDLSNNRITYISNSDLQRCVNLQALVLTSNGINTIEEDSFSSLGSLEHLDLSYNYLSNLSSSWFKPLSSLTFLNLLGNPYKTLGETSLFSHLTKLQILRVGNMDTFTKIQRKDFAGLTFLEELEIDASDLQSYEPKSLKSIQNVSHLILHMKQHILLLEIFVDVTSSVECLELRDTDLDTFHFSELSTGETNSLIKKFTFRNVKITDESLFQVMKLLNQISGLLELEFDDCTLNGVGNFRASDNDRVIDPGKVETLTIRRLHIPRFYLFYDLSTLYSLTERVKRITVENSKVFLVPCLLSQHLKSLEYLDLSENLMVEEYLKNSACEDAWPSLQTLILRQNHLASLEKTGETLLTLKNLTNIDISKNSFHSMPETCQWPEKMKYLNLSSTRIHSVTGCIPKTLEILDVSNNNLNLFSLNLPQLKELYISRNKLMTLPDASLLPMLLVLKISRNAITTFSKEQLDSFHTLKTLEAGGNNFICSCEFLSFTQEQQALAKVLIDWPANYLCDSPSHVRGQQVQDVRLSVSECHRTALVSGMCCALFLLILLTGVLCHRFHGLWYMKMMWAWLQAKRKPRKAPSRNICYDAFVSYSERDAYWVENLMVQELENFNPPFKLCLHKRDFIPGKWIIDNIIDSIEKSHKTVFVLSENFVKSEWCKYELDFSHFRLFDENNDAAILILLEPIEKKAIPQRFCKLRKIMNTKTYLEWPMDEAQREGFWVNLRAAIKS

Experiments:
TLR2 = target: T1, TLR2 (Homo sapiens, UniProt O60603); test: TLR2 ligand induced TNF-α secretion in PBMCs (ELISA); assay type: cell-based; conditions: 1 hr pretreatment, TLR2 ligand 75 ng/ml, 24 hrs
T1 construct: endogenous in cells

[1] = test system: TNF-α secretion from LPS induced THP-1 monocytes; test: LPS induced TNF-α secretion in THP-1 monocytes, dose dependence; assay type: cell-based, human; conditions: THP-1, LPS 250 ng/ml 24 hr, pretreated 1 hr at 100, 50, 10 and 1 μM
[2] = test system: LPS induced TNF-α secretion in PBMC; test: LPS induced TNF-α release in human PBMC; assay type: cell-based; conditions: PBMCs, RSCL-0520 treatment alone, without LPS
[3] = test system: LPS induced TNF-α secretion from THP-1 cells; test: TNF response of THP-1 cells to increasing concentration of LPS; assay type: cell-based, human; conditions: THP-1, compound 10 μM, LPS 1000 ng/ml
TNF-α mRNA = TNF-α mRNA expression in THP-1 cells (quantitative real-time PCR); assay type: cell-based, human; conditions: THP-1, 50 μM, LPS 250 ng/ml, 1 hr post LPS stimulation
[4] = test system: ICAM-1, COX-2, IL-1β and IL-8 mRNA; test: mRNA expression of pro-inflammatory genes in THP-1 cells; assay type: cell-based, human
COX-2 pathway = test: Arachidonic acid induced PGE2 release in A549 cells; assay type: cell-based, human
[5] = test system: NO production in RAW 264.7 cells; test: LPS induced nitric oxide (NO) release in RAW 264.7 cells (Griess reaction); assay type: cell-based, murine
NEMO and IκB-α = test: Immunoblot of NEMO and IκB-α in LPS stimulated THP-1 cells; assay type: cell-based, human; conditions: THP-1, 50 μM 1 hr prior to LPS 250 ng/ml
phospho NF-κB p65 = test: FACS detection of phospho NF-κB p65 in LPS stimulated cells; assay type: cell-based, human; conditions: 50 μM pretreatment, 1 hr LPS stimulation
[6] = test system: NF-κB p65 nuclear translocation; test: Immunoblot of nuclear p65 in LPS stimulated THP-1 cells; assay type: cell-based, human; conditions: nuclear extracts of LPS stimulated THP-1, time dependent
[7] = test system: MyD88 dependent signaling of TLR4; test: mRNA expression of TLR related genes in LPS stimulated THP-1 cells; assay type: cell-based, human; conditions: THP-1, LPS 250 ng/ml 1 hr, pretreatment with compound
TIRAP and MyD88 = test: Immunoblot of TIRAP and MyD88 in LPS stimulated THP-1 cells; assay type: cell-based, human; conditions: THP-1, compound 1 hr prior to LPS 250 ng/ml

`COc1cc(O)c2c(c1)CCc1c-2ccc(OC)c1O` [RSCL-0520, 1,5-dihydroxy-2,7-dimethoxy-9,10-dihydrophenanthrene] was tested, and the “inhibition of TLR2 mediated TNF-α production” value (TLR2) was “extended to TLR2 in PBMCs”, the “inhibition of LPS induced TNF-α secretion” value [1] was “inhibited by RSCL-0520 in a concentration dependent manner” and the “TNF levels with compound alone” value [2] was “not detectable”. For the same compound, the “inhibition of LPS induced TNF-α secretion” value [3] was “effective”, the “TNF-α mRNA expression” value (TNF-α mRNA) was “down regulated TNF-α to almost control levels” and the “mRNA expression of ICAM-1, COX-2, IL-1β and IL-8” value ([4]; THP-1, 50 μM for 1 hr followed by LPS 250 ng/ml) was “inhibited mRNA expression levels of the tested genes”. For the same compound, the “mRNA expression of ICAM-1, COX-2, IL-1β and IL-8, compound alone” value ([4]; THP-1, 50 μM, in the absence of LPS) was “did not alter the gene expressions”, the “inhibition of PGE2 release at lowest concentration” value (COX-2 pathway; 1.25 μM) was “effective even at 1.25 μM” and the “inhibition of PGE2 release” value (COX-2 pathway; serum free, 10, 5, 2.5 and 1.25 μM, 30 min pretreatment, then AA 30 min) was “concentration dependent inhibition of PGE2 release”. For the same compound, the “inhibition of LPS induced NO secretion” value ([5]; RAW 264.7, LPS 250 ng/ml, 24 hr, nitrite by Griess) was “inhibited by RSCL-0520 in a concentration dependent manner”, the “anti-oxidant potency compared with Trolox, Vit E, Catechin and Ascorbic acid” value ([5]; RAW 264.7, LPS induced NO release) was “better anti-oxidant potency than any of them” and the “effect on activation of NEMO” value (NEMO and IκB-α) was “blocked signaling to NEMO”. The “effect on degradation of IκB-α” value (NEMO and IκB-α) was “accumulation of IκB-α”, the “effect on phospho-p65” value (phospho NF-κB p65) was “inhibit phospho-p65 in LPS treated cells” and the “translocation of NF-κB p65 into the nucleus” value [6] was “blocked translocation of NF-κB into the nucleus”. For the same compound, the “mRNA expression of TLR related genes” value [7] was “inhibits the mRNA expression levels of TIRAP, MyD88, TRAF6, IL-1R-associated kinase1 (IRAK1) and IRAK4” and the “protein levels of TIRAP and MyD88” value (TIRAP and MyD88) was “Down regulation of TIRAP and also MyD88 at protein levels”.
